Laboratory results: patent publication US6982142B2, “Methods for screening therapeutically effective agents” (John Wayne Cancer Institute, priority 1997, dated 2006)

Test system: MCF-7-AdrR cells
Test: Metabolic fate of C6-ceramide (TLC, H2SO4 charring) in MDR cells
Assay type: cell-based, human
Details: C6-ceramide 10 μM, 24 hr, serum-free medium

CCCCCCCCCCCCC/C=C/[C@@H](O)[C@H](CO)NC(=O)CCCCC [C6-ceramide, N-hexanoylsphingosine]
free C6-ceramide in cells: undetectable | glucosyl-C6-ceramide (glycosylation product) in cells, compared with wild-type cells: markedly increased
